Test results from patent US7407772B2, “Screening and selection methods for statin drug combinations” (Merck & Co., Inc., priority 2001, dated 2008).

Legend:
[1] = dog, in vivo, po
[2] = system: glucuronidation of SVA (UDPGA-dependent); experiment: in vitro; settings: human, liver microsomes, pH 7, probe SVA (10-20 μM), IC50, SVA Glucuronidation, statin 10-20 μM
Protocol: (§1) The term “glucuronidation inhibition assay” as used herein refers to the following assay when performed with human liver microsomes.
(§2) The effects of inhibitors on metabolism of the statins were expressed as percentages of metabolites (statin glucuronides and lactones) formed in the presence of inhibitors relative to the corresponding values obtained in the absence of inhibitors (control) on the same day.
(§3) Incubations were performed in triplicate for each concentration of inhibitors, and involved co-incubation of GFZ or ketoconazole (1 μM) with statins (10-20 μM) in the presence of NADPH (oxidation) or UDPGA (glucuronidation).

[3] = system: glucuronidation of CVA (UDPGA-dependent); experiment: in vitro; settings: human, liver microsomes, pH 7, probe CVA (10-20 μM), IC50, CVA Glucuronidation, statin 10-20 μM
Protocol: as §1, §2, §3

SMILES: CC(C)OC(=O)C(C)(C)Oc1ccc(C(=O)c2ccc(Cl)cc2)cc1 [Fenofibrate, fenofibrate]
- SVA/SV AUC ratio, Feno/vehicle [1]: 0.8 ± 0.2
- IC50 [2]: 682 µM
- IC50 [3]: 433 µM
